Data reported in PMC9575046.
These are yes or no findings as the source states them, for the method shown. Binding seen in cells or lysates may run through a third protein. Binding can be weak; no strength is given.

Molecular target: tumour necrosis factor receptor 1 (human (endogenous in HepG2))
Assay: co-IP; WT HepG2 cell lysate (150 mM NaCl, 20 mM Tris-HCl pH 8.0, 10% glycerol, 0.3% Nonidet P-40) incubated with anti-TNFR1 antibody (sc-8436) at 4°C overnight, protein A/G PLUS-agarose beads; immunoblot with anti-TNFR1 and anti-Ninj1; NINJ1 KO HepG2 cells as control

B1: Nerve injury-induced protein 1 (Ninjurin1) (protein, UniProt Q92982 1-152)
chain: MDSGTEEYELNGGLPPGTPGSPDASPARWGWRHGPINVNHYASKKSAAESMLDIALLMANASQLKAVVEQGPSFAFYVPLVVLISISLVLQIGVGVLLIFLVKYDLNNPAKHAKLDFLNNLATGLVFIIVVVNIFITAFGVQKPLMDMAPQQ
- binding: binds
